From US7956212B2 (XenoPort, Inc., priority 2004, dated 2011)
Some results were stated once for a whole list of compounds, not compound by compound. For part of these data: At least one structure is not confirmed: it was looked up by name or label, or the drawing left a doubt.

Assays:
[1] = Uptake of levodopa following intracolonic administration of levodopa prodrugs with carbidopa in rats; type: in vivo; conditions: intracolonic prodrug HCl salt equivalent to 75 mg levodopa per kg, carbidopa 25 mg/kg coadministered, versus intracolonic levodopa with carbidopa
[2] = human, in vivo; cited from earlier work

In the case of `C[C@H](OC(=O)c1ccccc1)[C@H](C)OC(=O)[C@@H](N)Cc1ccc(O)c(O)c1.Cl` [Example 17, (1S,2S)-t-Methyl-2-phenylcarbonyloxypropyl (2S)-2-amino-3-(3,4-dihydroxyphenyl)propanoate hydrochloride], the “relative bioavailability of levodopa, fold greater than following administration of levodopa” value [1] is reported as “at least 2 fold”.
In the case of `C[C@@](Cc1ccc(O)c(O)c1)(NN)C(=O)O` [carbidopa], the half-life [2] is given as “less than 2 hours”.
For `N[C@@H](Cc1ccc(O)c(O)c1)C(=O)O` [levodopa, L-3,4-dihydroxyphenylalanine], the half-life [2] is listed as “less than 2 hours”.
